Measurements from PubChem BioAssay AID720534 (National Center for Advancing Translational Sciences (NCATS), 2013).
In all, about 1,600 compounds went through this assay and about 990 (62%) were called active. So high a share suggests a set chosen from earlier hits. The shares of active, inactive and inconclusive entries below differ from those in the screen. The call rests on the fitted dose curve; in most records, active means well fitted inhibition curve with a large enough effect; inconclusive means small, poorly fitted or top-dose-only effect; inactive means no such curve, though single readings can be large or run the other way. Potencies beside an inconclusive call are fits to weak or partial responses and may not hold up.

Experiment: qHTS for Inhibitors of TGF-b: Confirmation of Cherry Picks; further: nearly all actives have a fitted effect of over 65% in size
Settings: HepG2 CAGA-GFP TGF-b reporter, GFP fluorescence, 18 h, cells stimulated with TGF-beta, 500 pg/mL; activity, negative = inhibition: at 46.1 µM (top of the series)
Summary of the method: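 %Activity came from corrected GFP fluorescence of TGF-beta-stimulated (500 pg/mL final, 18 h) HepG2 CAGA-GFP cells in 1% FBS, normalized to unstimulated wells and stimulated DMSO wells.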
On the % scale 0 is the no-effect control and ±100 the full control effect; potency means the concentration at half of the fitted maximal effect.

SMILES | Potency | activity, negative = inhibition
O=C(CSc1nnc(CCc2ccccc2)n1-c1ccc(Cl)cc1)NCc1ccccc1 | inconclusive: 16.4 µM [inhibitor, single point] | 
CN(C)C(=O)c1ccc(-c2cc3onc(-c4ccccc4)c3c(=O)n2C)cc1 |  | inactive: -6.35%
CN(CCOc1ccccc1)C(=O)C1CCN(C(=O)c2ccc(F)cc2)CC1 |  | inactive: -16.3%
CC(C)C[C@H]1CNC(=S)N1C[C@H]1CCCN1C[C@H](Cc1ccc(O)cc1)N1C[C@H](Cc2ccccc2)N(CC2CCCCCC2)C1=S | inconclusive: 18.4 µM [inhibitor, partial curve, poor fit] | 
CC(=O)Nc1ccc(C(=O)CSc2ncn(-c3ccccc3)n2)cc1 | inconclusive: 29.1 µM [inhibitor, single point] | 
CC[C@@H]1C(c2ccccc2)=NN(c2ccccc2)[C@H]1C(=O)N1CCOC1=O |  | inactive: -13.2%
Cn1c(=O)n(C)c2cc(S(=O)(=O)N3CCCc4ccccc43)ccc21 |  | inactive: -40.6%
CCOc1ccc(CCN2C(=S)N([C@@H](CC(C)C)CN3CCC[C@@H]3CN3C(=S)NC[C@@H]3Cc3ccccc3)C[C@@H]2Cc2ccc(O)cc2)cc1 | inconclusive: 13 µM [inhibitor, partial curve] | 
Cc1ccc(OCCCC(=O)Nc2ccc(Cl)c(S(=O)(=O)N3CCOCC3)c2)cc1 | inconclusive: 16.4 µM [inhibitor, single point] | 
c1ccc(Nc2nc(-c3ccncc3)nc3ccccc23)cc1 |  | inactive: -26.4%
O=C(NCCc1cccs1)C1CC(c2ccccc2F)=NO1 (stereo not drawn) |  | inactive: -2.49%
ON=C1c2ccccc2-c2ccc(F)cc21 | active: 9.2 µM | 
Cc1ccnc(Nc2nc(-c3ccccc3)cs2)c1 |  | inactive: -26%
COc1ccc(-c2cccc(-c3cc(=O)oc4cc(OC)cc(OC)c34)c2)cc1 | active: 1.64 µM | 
CCCOc1ccc(F)cc1-c1cc(C(=O)Nc2ccc(C)c(NS(C)(=O)=O)c2)[nH]n1 | inconclusive: 18.4 µM [inhibitor, single point] | 
c1ccc(-c2cn3c(n2)CCc2ccc4cccnc4c2-3)cc1 |  | inactive: -25.2%
CC(=O)Nc1cc(OC(C)=O)c2nonc2c1OC(C)=O | active: 4.11 µM | 
COc1ccc2[nH]c3c(c2c1)CCN1C(=O)C(CC(=O)NCCC2=CCCCC2)C[C@H](C(=O)N2CCCCC2)[C@@]31C (stereo partly drawn) | inconclusive: 23.1 µM [inhibitor, single point] | 
Cc1cc(C(=O)N2CCN(C/C=C/c3ccccc3)CC2)cs1 | inconclusive: 20.6 µM [inhibitor, single point] | 
Cn1c(=O)oc2cc(S(=O)(=O)N3CCCC(C(=O)NC4CCCc5ccccc54)C3)ccc21 (stereo not drawn) | inconclusive: 6.51 µM [inhibitor, partial curve] | 
CC1CCN(C(=O)c2[nH]cnc2C(=O)NCc2ccccc2)CC1 |  | inactive: -7.25%
Cc1ccc(SCCNC(=O)c2ccc(C)c(S(=O)(=O)Nc3cccc(C)c3)c2)cc1 | inconclusive: 25.9 µM [inhibitor, single point] | 
CCO[C@@H]1OC(C(=O)NCc2nc3ccccc3[nH]2)=C[C@H](C(C)(C)C)[C@H]1CCCO | inconclusive: 13 µM [inhibitor, partial curve] | 

18 structures already listed, arranged by SMILES length, low to high:
SMILES | Potency | activity, negative = inhibition
ON=C1c2ccccc2-c2ccc(F)cc21 | active: 9.2 µM | 
Cc1ccnc(Nc2nc(-c3ccccc3)cs2)c1 |  | inactive: -26%
O=C(NCCc1cccs1)C1CC(c2ccccc2F)=NO1 (stereo not drawn) |  | inactive: -2.49%
CC(=O)Nc1cc(OC(C)=O)c2nonc2c1OC(C)=O | active: 4.11 µM | 
c1ccc(-c2cn3c(n2)CCc2ccc4cccnc4c2-3)cc1 |  | inactive: -25.2%
CC1CCN(C(=O)c2[nH]cnc2C(=O)NCc2ccccc2)CC1 |  | inactive: -7.25%
CC(=O)Nc1ccc(C(=O)CSc2ncn(-c3ccccc3)n2)cc1 | inconclusive: 29.1 µM [inhibitor, single point] | 
Cn1c(=O)n(C)c2cc(S(=O)(=O)N3CCCc4ccccc43)ccc21 |  | inactive: -40.6%
O=C(CSc1nnc(CCc2ccccc2)n1-c1ccc(Cl)cc1)NCc1ccccc1 | inconclusive: 16.4 µM [inhibitor, single point] | 
COc1ccc(-c2cccc(-c3cc(=O)oc4cc(OC)cc(OC)c34)c2)cc1 | active: 1.64 µM | 
Cc1ccc(OCCCC(=O)Nc2ccc(Cl)c(S(=O)(=O)N3CCOCC3)c2)cc1 | inconclusive: 16.4 µM [inhibitor, single point] | 
CC[C@@H]1C(c2ccccc2)=NN(c2ccccc2)[C@H]1C(=O)N1CCOC1=O |  | inactive: -13.2%
Cc1ccc(SCCNC(=O)c2ccc(C)c(S(=O)(=O)Nc3cccc(C)c3)c2)cc1 | inconclusive: 25.9 µM [inhibitor, single point] | 
CCCOc1ccc(F)cc1-c1cc(C(=O)Nc2ccc(C)c(NS(C)(=O)=O)c2)[nH]n1 | inconclusive: 18.4 µM [inhibitor, single point] | 
Cn1c(=O)oc2cc(S(=O)(=O)N3CCCC(C(=O)NC4CCCc5ccccc54)C3)ccc21 (stereo not drawn) | inconclusive: 6.51 µM [inhibitor, partial curve] | 
COc1ccc2[nH]c3c(c2c1)CCN1C(=O)C(CC(=O)NCCC2=CCCCC2)C[C@H](C(=O)N2CCCCC2)[C@@]31C (stereo partly drawn) | inconclusive: 23.1 µM [inhibitor, single point] | 
CC(C)C[C@H]1CNC(=S)N1C[C@H]1CCCN1C[C@H](Cc1ccc(O)cc1)N1C[C@H](Cc2ccccc2)N(CC2CCCCCC2)C1=S | inconclusive: 18.4 µM [inhibitor, partial curve, poor fit] | 
CCOc1ccc(CCN2C(=S)N([C@@H](CC(C)C)CN3CCC[C@@H]3CN3C(=S)NC[C@@H]3Cc3ccccc3)C[C@@H]2Cc2ccc(O)cc2)cc1 | inconclusive: 13 µM [inhibitor, partial curve] | 

Carrying on:

SMILES | Potency | activity, negative = inhibition
CC(C)C[C@@H](CN1CCC[C@@H]1CN1C(=S)NC[C@@H]1Cc1ccc(O)cc1)N1C[C@H](Cc2ccc(O)cc2)N(CC2CCCCCC2)C1=S | active: 18.4 µM | 
COc1ccc(C(=O)Nc2ccc(C)c(S(=O)(=O)N3CCOCC3)c2)cc1S(=O)(=O)N1CCCC1 | inconclusive: 32.6 µM [inhibitor, single point] | 
O=C(Nc1ccc(Br)cn1)c1ccc([N+](=O)[O-])o1 | active: 18.4 µM | 
Cc1cc2nc(-c3ccc(F)cc3)c(CC(C)(C)C)n2c(C)c1Br | inconclusive: 20.6 µM [inhibitor, single point] | 
CN(C(=S)NC(=O)c1ccccc1Br)C1CCCCC1 |  | inactive: -19.8%
Clc1ccc2nc(-c3cccc(Br)c3)c(Cc3ccsc3)n2c1 | inconclusive: 29.1 µM [inhibitor, single point] | 
Cc1ccc2sc(N(CCCN(C)C)C(=O)CCS(=O)(=O)c3ccccc3)nc2c1C | inconclusive: 23.1 µM [inhibitor, single point] | 
Cc1ccnc(Nc2nc(-c3sc(C)nc3C)cs2)c1 | active: 9.2 µM | 
COc1ccc(C(NC(C)=O)c2cc(Cl)c3cccnc3c2O)cc1 (stereo not drawn) | inconclusive: 32.6 µM [inhibitor, single point] | 
CC(C)(C)c1ccc(OCCNC(=S)Nc2ccccc2)cc1 | inconclusive: 29.1 µM [inhibitor, single point] | 
COc1cc(/C=C2\COC/C(=C\c3cc(OC)c(OC)c(OC)c3)C2=O)cc(OC)c1OC | active: 1.3 µM | 
O=C(c1ccco1)N1CCN(C(=O)C2CCCc3c2[nH]c2ccc(Cl)cc32)CC1 (stereo not drawn) | inconclusive: 23.1 µM [inhibitor, single point] | 
FC(F)Oc1ccc(-c2csc(=Nc3cccnc3)n2CC2CCCO2)cc1 (stereo not drawn) |  | inactive: 12.1%
COc1ccc(C(=O)CSc2cc(C)nc(SCC(=O)c3ccc(C)cc3)n2)cc1 | inconclusive: 10.3 µM [inhibitor, partial curve, poor fit] | 
CC(NCC(O)COCCC12CC3CC(CC(C3)C1)C2)c1ccccc1 (stereo not drawn) | inconclusive: 29.1 µM [inhibitor, single point] | 
OCCCNc1cc(-c2ccnc(Nc3cccc(Cl)c3)n2)ccn1 | active: 0.058 µM | 
COc1ccccc1NC(=O)c1ccc([N+](=O)[O-])o1 | inconclusive: 29.1 µM [inhibitor, single point] | 
Cc1cc(Nc2ccccc2)nc(NCc2ccccc2)n1 |  | inactive: 3.67%
COc1ccc2c(c1)OC[C@H]1[C@H]2N2C(=O)CN(Cc3ccc(Cl)cc3)C(=O)[C@@]2(C)[C@H]1c1ccccc1 | inconclusive: 32.6 µM [inhibitor, single point] | 
CCOC(=O)c1c(C)[nH]c(C(=O)OCC(=O)NCCc2ccc(OCC)c(OCC)c2)c1C | inconclusive: 29.1 µM [inhibitor, single point] | 
Cc1ccc(NC(=O)CSc2nn(-c3ccc(Cl)cc3)c(=S)s2)cc1S(=O)(=O)N(C)C | inconclusive: 5.17 µM [inhibitor, partial curve] | 
CC(C)c1ccc(CN2CCN(C(=O)CSc3nnnn3C3CC3)CC2)cc1 |  | inactive: -22.1%
CCN(CC)C(=O)c1ccc2nc3ccccc3nc2c1 | inconclusive: 20.6 µM [inhibitor, partial curve] | 

SMILES | Potency | activity, negative = inhibition
O=C(c1cc(S(=O)(=O)Nc2ccccc2F)c(Cl)cc1Cl)N1CCN(CCO)CC1 |  | inactive: -2.27%
CC(C)C(=O)NC(c1cccc([N+](=O)[O-])c1)c1ccc2cccnc2c1O (stereo not drawn) | inconclusive: 16.4 µM [inhibitor, partial curve] | 
COc1cc(NC(=O)C2Cc3ccccc3CN2S(C)(=O)=O)cc(OC)c1 (stereo not drawn) |  | inactive: -20.7%
COc1ccccc1CNS(=O)(=O)c1ccc2c(c1)CC(C)N2C(=O)C1CCC1 (stereo not drawn) | active: 18.4 µM | 
O=C(NCc1ccco1)c1nc2c(nnn2Cc2ccccc2Cl)c(=O)[nH]1 | active: 5.8 µM | 
CNc1c2cccc(C)c2nc2c(C(=O)NCCN(C)C)cccc12 | active: 0.58 µM | 
C=CCn1c(O)c(N=NC(=S)Nc2ccc(OC)cc2)c2ccccc21 | inconclusive: 6.51 µM [inhibitor, partial curve] | 
S=C(Nc1ccccn1)c1ccccn1 |  | inactive: -22.3%
Cc1ccc(OC(C)C(=O)Nc2ccncc2)cc1C (stereo not drawn) | inconclusive: 13 µM [inhibitor, partial curve] | 
NC(Cc1ccc(C(F)(F)F)cc1)c1csc(NC(=O)Nc2ccccc2Cc2ccccc2)n1 (stereo not drawn) | inconclusive: 29.1 µM [inhibitor, single point] | 
CC[C@]12c3[nH]c4cc(-c5ccco5)ccc4c3CCN1C(=O)[C@@H](CC(=O)NCC13CC4CC(CC(C4)C1)C3)C[C@@H]2C(=O)N1CCN(C(=O)c2ccco2)CC1 | inconclusive: 4.61 µM [inhibitor, full curve] | 
Oc1cccc(Nc2nc(-c3ccccc3Cl)nc3ccccc23)c1 | inconclusive: 10.3 µM [inhibitor, partial curve, poor fit] | 
CC(C)(C)c1ccc(C(=O)CC(=O)c2cc(Cl)ccc2O)cc1 | inconclusive: 13 µM [inhibitor, partial curve, poor fit] | 
Cc1ccc(C(C)C)cc1NC(=O)Nc1ccc([N+](=O)[O-])cc1 | inconclusive: 18.4 µM [inhibitor, single point] | 
O=C(Nc1ccc(F)cc1)Nc1csc2ccccc12 | inconclusive: 29.1 µM [inhibitor, single point] | 
O=C(Nc1ccc(C2CC2(Cl)Cl)cc1)c1cccc([N+](=O)[O-])c1 (stereo not drawn) |  | inactive: -80.8%
CCO[C@H]1OC(C(=O)Nc2ccccc2)=C[C@@H](c2ccc(C(F)(F)F)cc2)[C@@H]1CCCO | inconclusive: 16.4 µM [inhibitor, single point] | 
O=C(Nc1ccc2oc(-c3ccncc3)nc2c1)c1ccc([N+](=O)[O-])o1 | active: 6.51 µM | 
CCOc1ccc(CCN2C(=S)N([C@@H](CC(C)C)CN3CCCC3CN3C(=S)NC[C@@H]3Cc3ccc(O)cc3)C[C@@H]2CC(C)C)cc1 (stereo partly drawn) | active: 11.6 µM | 
CC(=O)Nc1ncc(Cc2cc(Cl)ccc2Cl)s1 | inconclusive: 7.31 µM [inhibitor, partial curve, poor fit] | 
CC(=O)Nc1ccc(S(=O)(=O)N2CCN(CC(O)COc3ccc4ccccc4c3)CC2)cc1 (stereo not drawn) | active: 25.9 µM | 
CC(=O)Nc1ccc(NC2=C/C(=N/S(=O)(=O)c3cccs3)c3ccccc3C2=O)cc1 | active: 2.59 µM | 
